Experimental data: paper doi:10.1101/2024.03.01.24303485
Substitutions are numbered along the chain they refer to. These are yes or no findings as the source states them, for the method shown. For some assays here: In cells and extracts the contact can be indirect. Some entries that bind do so weakly or less than the wild type. Sequences can lack the tags named with a protein.

Chains of the proteins cited; added tags and fusions are not shown. Lines headed by an entry give the natural chain unless they say otherwise; changes in a name come on top.
UniProt Q6P6J0, whole entry: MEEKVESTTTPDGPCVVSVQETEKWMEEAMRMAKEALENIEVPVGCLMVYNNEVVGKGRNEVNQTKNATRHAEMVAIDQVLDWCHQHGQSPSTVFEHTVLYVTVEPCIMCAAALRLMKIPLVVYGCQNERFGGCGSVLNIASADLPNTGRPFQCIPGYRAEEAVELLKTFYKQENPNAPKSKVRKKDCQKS

How the values were obtained:
[1] = biological target: T1, mouse ADAT3 V128M, His-tagged (mouse) (UniProt Q6PAT0); assay: pull-down
T1 sequence: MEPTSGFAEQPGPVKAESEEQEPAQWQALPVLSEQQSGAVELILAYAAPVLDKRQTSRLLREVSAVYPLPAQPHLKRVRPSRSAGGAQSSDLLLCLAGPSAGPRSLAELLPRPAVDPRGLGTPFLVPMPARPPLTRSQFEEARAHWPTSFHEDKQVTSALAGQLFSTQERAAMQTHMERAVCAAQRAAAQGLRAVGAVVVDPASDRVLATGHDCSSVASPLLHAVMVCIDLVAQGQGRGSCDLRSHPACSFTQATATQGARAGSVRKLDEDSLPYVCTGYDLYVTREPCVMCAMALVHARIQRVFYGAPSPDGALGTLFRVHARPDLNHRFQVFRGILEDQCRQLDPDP

[2] = biological target: T2, mouse ADAT3 A180L, His-tagged (mouse) (UniProt Q6PAT0); assay: pull-down
T2 sequence: T1 sequence with M128V, A180L

[3] = biological target: T3, mouse ADAT3 A180V, His-tagged (mouse) (UniProt Q6PAT0); assay: pull-down
T3 sequence: T1 sequence with M128V, A180V

[4] = biological target: T4, mouse ADAT3 wild type, His-tagged (pnEA-HT3-mADAT3 WT) (mouse) (UniProt Q6PAT0); assay: pull-down
T4 sequence: T1 sequence with M128V

[5] = biological target: T5, mouse ADAT3 A180V, tag removed (as crystallised with ADAT2) (mouse) (UniProt Q6PAT0); assay: crystal structure
T5 sequence: T1 sequence with M128V, A180V

binding [1]: binds
binding [2]: binds
binding [3]: binds
binding [4]: binds
binding [5]: binds
Substance: mouse ADAT2 wild type, untagged (pnCS-mADAT2 WT) (from UniProt Q6P6J0 1-191) (enzyme)
